Results deposited as PubChem BioAssay AID743458 (Peter MacCallum Cancer Centre, 2014).
Aim: 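Identify genes whose loss lifts vorinostat resistance in colon cancer cells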 (follow-up of hits). Cells: human HCT116-VR colon cancer cells made resistant to vorinostat. Knock-down reagent: single siRNA or pool against human genes, 25 nM per single siRNA. Duration: about 72 h after transfection, including 24 h of drug. Challenge: vorinostat, 2.5 µM final, for 24 h. Measurement: 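Cell viability by fluorescence and apoptosis by caspase 3/7 luminescence under vorinostat, background-corrected, averaged across two plate copies and given as fold change versus mock transfection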. Scale: viability relative to mock: higher = more living cells than mock; caspase activity relative to mock: higher = more apoptosis than mock. Rule for the call: 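Active means a reduced-viability or caspase-activation class, anything else inactive; classes could only be given to wells that looked healthy when left untreated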.
Shown is a random part of about 1,800 reagents tested. Over the whole deposit, 732 (41%) are marked active. 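Calls are per siRNA reagent; a gene was deemed confirmed only if most of its four siRNAs scored.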 The numbers tell different reagents against one gene apart. No sequences are given here.

| Target gene | reagent no. | viability relative to mock | caspase activity relative to mock | viability hit class | caspase hit class | Call |
| --- | --- | --- | --- | --- | --- | --- |
| ITGB1BP2 (integrin subunit beta 1 binding protein 2) | 1 | 1.1 | 1 | no change | no change | inactive |
| ITGB1BP2 (integrin subunit beta 1 binding protein 2) | 2 | 1.04 | 1.83 | no change | no change | inactive |
| ITGB1BP2 (integrin subunit beta 1 binding protein 2) | 3 | 0.82 | 0.72 | no change | no change | inactive |
| ITGB1BP2 (integrin subunit beta 1 binding protein 2) | 4 | 0.83 | 2.25 | no change | no change | inactive |
| YJU2B (YJU2 splicing factor homolog B) | 1 | 0.94 | 1.17 | no change | no change | inactive |
| YJU2B (YJU2 splicing factor homolog B) | 2 | 0.52 | 2.29 | reduced viability | no change | active |
| YJU2B (YJU2 splicing factor homolog B) | 3 | 0.82 | 1.84 | no change | no change | inactive |
| YJU2B (YJU2 splicing factor homolog B) | 4 | 0.91 | 4.16 | no change | caspase activation | active |
| CYP7A1 (cytochrome P450 family 7 subfamily A member 1) | 1 | 0.94 | 1.31 | no change | no change | inactive |
| CYP7A1 (cytochrome P450 family 7 subfamily A member 1) | 2 | 1 | 1.07 | no change | no change | inactive |
| CYP7A1 (cytochrome P450 family 7 subfamily A member 1) | 3 | 0.7 | 1.64 | no change | no change | inactive |
| CYP7A1 (cytochrome P450 family 7 subfamily A member 1) | 4 | 0.26 | 3.73 | reduced viability | caspase activation | active |
| CACNA1A (calcium voltage-gated channel subunit alpha1 A) | 1 | 0.36 | 2.2 | reduced viability | no change | active |
| CACNA1A (calcium voltage-gated channel subunit alpha1 A) | 2 | 0.84 | 3.69 | no change | caspase activation | active |
| CACNA1A (calcium voltage-gated channel subunit alpha1 A) | 3 | 0.82 | 0.88 | no change | no change | inactive |
| CACNA1A (calcium voltage-gated channel subunit alpha1 A) | 4 | 0.98 | 1.19 | no change | no change | inactive |
| CSDC2 (cold shock domain containing C2) | 1 | 0.97 | 1.93 | no change | no change | inactive |
| CSDC2 (cold shock domain containing C2) | 2 | 0.52 | 4.82 | reduced viability | caspase activation | active |
| CSDC2 (cold shock domain containing C2) | 3 | 0.74 | 1.04 | no change | no change | inactive |
| CSDC2 (cold shock domain containing C2) | 4 | 0.52 | 2.22 | reduced viability | no change | active |
| INTS2 (integrator complex subunit 2) | 1 | 0.74 | 4.71 | no change | caspase activation | active |
| INTS2 (integrator complex subunit 2) | 2 | 0.72 | 1.37 | no change | no change | inactive |
| INTS2 (integrator complex subunit 2) | 3 | 0.88 | 3.39 | no change | caspase activation | active |
| INTS2 (integrator complex subunit 2) | 4 | 0.88 | 1.8 | no change | no change | inactive |
| SOWAHB (sosondowah ankyrin repeat domain family member B) | 1 | 0.74 | 1.23 | no change | no change | inactive |
| SOWAHB (sosondowah ankyrin repeat domain family member B) | 2 | 0.82 | 0.63 | no change | no change | inactive |
| SOWAHB (sosondowah ankyrin repeat domain family member B) | 3 | 1.04 | 1.04 | no change | no change | inactive |
| SOWAHB (sosondowah ankyrin repeat domain family member B) | 4 | 0.62 | 4.36 | no change | caspase activation | active |
| TOMM70 (translocase of outer mitochondrial membrane 70) | 1 | 0.69 | 1.29 | no change | no change | inactive |
| TOMM70 (translocase of outer mitochondrial membrane 70) | 2 | 0.88 | 3 | no change | caspase activation | active |
| TOMM70 (translocase of outer mitochondrial membrane 70) | 3 | 0.4 | 2.5 | reduced viability | no change | active |
| TOMM70 (translocase of outer mitochondrial membrane 70) | 4 | 0.88 | 0.9 | no change | no change | inactive |
| PLAG1 (PLAG1 zinc finger) | 1 | 1.03 | 2.37 | no change | no change | inactive |
| PLAG1 (PLAG1 zinc finger) | 2 | 1 | 3.12 | no change | caspase activation | active |
| PLAG1 (PLAG1 zinc finger) | 3 | 0.46 | 2.87 | reduced viability | caspase activation | active |
| PLAG1 (PLAG1 zinc finger) | 4 | 0.7 | 2.53 | no change | no change | inactive |
| NUP58 (nucleoporin 58) | 1 | 0.41 | 1.86 | reduced viability | no change | active |
| NUP58 (nucleoporin 58) | 2 | 0.49 | 3.36 | reduced viability | caspase activation | active |
| NUP58 (nucleoporin 58) | 3 | 0.52 | 3.58 | reduced viability | caspase activation | active |
| NUP58 (nucleoporin 58) | 4 | 0.55 | 3.05 | reduced viability | caspase activation | active |
| NUP62 (nucleoporin 62) | 1 | 0.86 | 4 | no change | caspase activation | active |
| NUP62 (nucleoporin 62) | 2 | 0.85 | 2.58 | no change | caspase activation | active |
| NUP62 (nucleoporin 62) | 3 | 0.61 | 3.77 | no change | caspase activation | active |
| NUP62 (nucleoporin 62) | 4 | 0.46 | 4.12 | reduced viability | caspase activation | active |
| CRIM1 (cysteine rich transmembrane BMP regulator 1) | 1 | 0.76 | 1.46 | no change | no change | inactive |
| CRIM1 (cysteine rich transmembrane BMP regulator 1) | 2 | 1.03 | 4.59 | no change | caspase activation | active |
| CRIM1 (cysteine rich transmembrane BMP regulator 1) | 3 | 0.81 | 1.67 | no change | no change | inactive |
| CRIM1 (cysteine rich transmembrane BMP regulator 1) | 4 | 0.82 | 2.94 | no change | caspase activation | active |
| NXPE1 (neurexophilin and PC-esterase domain family member 1) | 1 | 0.87 | 1.2 | no change | no change | inactive |
| NXPE1 (neurexophilin and PC-esterase domain family member 1) | 2 | 0.68 | 1.23 | no change | no change | inactive |
| NXPE1 (neurexophilin and PC-esterase domain family member 1) | 3 | 0.56 | 2.85 | reduced viability | caspase activation | active |
| NXPE1 (neurexophilin and PC-esterase domain family member 1) | 4 | 0.73 | 1.29 | no change | no change | inactive |
| PRRT3 (proline rich transmembrane protein 3) | 1 | 0.7 | 3.25 | no change | caspase activation | active |
| PRRT3 (proline rich transmembrane protein 3) | 2 | 0.55 | 6.63 | reduced viability | caspase activation | active |
| PRRT3 (proline rich transmembrane protein 3) | 3 | 0.66 | 4.26 | no change | caspase activation | active |
| PRRT3 (proline rich transmembrane protein 3) | 4 | 0.62 | 0.68 | no change | no change | inactive |
| ZNF547 (zinc finger protein 547) | 1 | 1.07 | 1.38 | no change | no change | inactive |
| ZNF547 (zinc finger protein 547) | 2 | 1.02 | 2.05 | no change | no change | inactive |
| ZNF547 (zinc finger protein 547) | 3 | 0.81 | 1.04 | no change | no change | inactive |
| ZNF547 (zinc finger protein 547) | 4 | 0.9 | 2.17 | no change | no change | inactive |

Just “viability relative to mock” (6 entries from above):
CRIM1 (cysteine rich transmembrane BMP regulator 1) #2	1.03
CRIM1 (cysteine rich transmembrane BMP regulator 1) #3	0.81
CRIM1 (cysteine rich transmembrane BMP regulator 1) #4	0.82
NXPE1 (neurexophilin and PC-esterase domain family member 1) #1	0.87
NXPE1 (neurexophilin and PC-esterase domain family member 1) #2	0.68
NXPE1 (neurexophilin and PC-esterase domain family member 1) #3	0.56
